Assay results: paper PMC10198857
No constants are given. Whether binding was seen depends on the method and setting. Binding seen in cells or lysates may run through a third protein. Some entries that bind do so weakly or less than the wild type.

The chains behind the UniProt entries cited, without tags or fusion partners. Residues count along the entry.
UniProt P15941, residues 24-1255: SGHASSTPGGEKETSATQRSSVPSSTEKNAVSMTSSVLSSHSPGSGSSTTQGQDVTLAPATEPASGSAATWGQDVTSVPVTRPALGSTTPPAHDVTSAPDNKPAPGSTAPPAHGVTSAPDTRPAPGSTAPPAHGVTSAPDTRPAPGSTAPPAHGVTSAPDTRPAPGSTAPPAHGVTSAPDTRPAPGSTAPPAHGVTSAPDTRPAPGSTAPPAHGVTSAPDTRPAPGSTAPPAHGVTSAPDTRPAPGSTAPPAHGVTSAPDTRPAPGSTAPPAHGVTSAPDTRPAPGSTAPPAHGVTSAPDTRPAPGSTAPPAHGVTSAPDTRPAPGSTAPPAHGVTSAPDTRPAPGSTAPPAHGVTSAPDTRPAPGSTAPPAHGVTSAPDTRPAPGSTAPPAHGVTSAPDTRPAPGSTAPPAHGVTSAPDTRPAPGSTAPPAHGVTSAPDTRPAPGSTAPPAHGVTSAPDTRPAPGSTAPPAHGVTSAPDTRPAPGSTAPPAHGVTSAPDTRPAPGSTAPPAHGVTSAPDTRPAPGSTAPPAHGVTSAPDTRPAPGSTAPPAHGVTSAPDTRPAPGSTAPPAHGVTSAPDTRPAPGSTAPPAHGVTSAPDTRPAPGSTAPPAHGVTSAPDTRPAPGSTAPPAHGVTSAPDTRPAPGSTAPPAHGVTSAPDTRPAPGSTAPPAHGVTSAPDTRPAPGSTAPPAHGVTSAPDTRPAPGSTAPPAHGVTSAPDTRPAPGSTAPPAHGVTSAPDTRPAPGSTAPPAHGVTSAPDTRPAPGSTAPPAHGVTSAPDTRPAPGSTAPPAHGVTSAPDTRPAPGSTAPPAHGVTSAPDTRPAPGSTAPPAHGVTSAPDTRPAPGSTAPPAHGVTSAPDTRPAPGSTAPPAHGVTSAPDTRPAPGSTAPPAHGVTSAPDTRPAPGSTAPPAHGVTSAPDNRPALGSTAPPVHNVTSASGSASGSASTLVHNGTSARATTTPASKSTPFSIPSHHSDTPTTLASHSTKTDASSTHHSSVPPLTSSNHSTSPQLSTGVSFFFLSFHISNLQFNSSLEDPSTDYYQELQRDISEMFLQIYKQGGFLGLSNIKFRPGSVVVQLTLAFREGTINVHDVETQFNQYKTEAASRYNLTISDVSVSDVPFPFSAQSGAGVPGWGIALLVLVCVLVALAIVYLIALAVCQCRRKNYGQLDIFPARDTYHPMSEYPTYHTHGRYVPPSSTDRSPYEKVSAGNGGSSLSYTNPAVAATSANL
UniProt P35222: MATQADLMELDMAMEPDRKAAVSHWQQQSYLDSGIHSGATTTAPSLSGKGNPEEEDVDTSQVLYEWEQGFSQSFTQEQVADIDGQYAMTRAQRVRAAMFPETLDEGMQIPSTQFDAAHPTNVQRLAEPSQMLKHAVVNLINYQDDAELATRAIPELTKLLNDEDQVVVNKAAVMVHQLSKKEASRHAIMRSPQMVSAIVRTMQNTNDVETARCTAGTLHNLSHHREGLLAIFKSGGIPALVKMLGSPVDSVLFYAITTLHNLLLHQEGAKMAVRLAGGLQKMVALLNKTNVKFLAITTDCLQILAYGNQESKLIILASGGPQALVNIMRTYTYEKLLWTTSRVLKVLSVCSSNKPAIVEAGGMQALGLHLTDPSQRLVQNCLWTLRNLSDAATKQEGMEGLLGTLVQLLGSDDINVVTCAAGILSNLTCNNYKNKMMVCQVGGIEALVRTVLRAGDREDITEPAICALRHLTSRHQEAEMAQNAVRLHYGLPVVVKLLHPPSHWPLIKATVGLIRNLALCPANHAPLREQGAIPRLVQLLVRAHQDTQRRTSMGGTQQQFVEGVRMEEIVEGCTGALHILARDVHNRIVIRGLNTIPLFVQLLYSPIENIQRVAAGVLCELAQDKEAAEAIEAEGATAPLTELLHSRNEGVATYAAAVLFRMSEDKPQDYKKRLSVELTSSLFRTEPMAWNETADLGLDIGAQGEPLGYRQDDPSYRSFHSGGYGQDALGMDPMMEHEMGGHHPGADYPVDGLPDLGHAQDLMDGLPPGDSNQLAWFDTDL

Target: mucin 1 (MUC1) (human (endogenous in ESCC cells)) (UniProt P15941)
Test: co-IP; ESCC cells; which protein was precipitated is not told; methods in Supplementary file 1 (not shown)

Substance: β-catenin (from UniProt P35222 1-781)
- binding: binds
